From patent publication US6528295
Results are given in words; binding and its absence hold for the method and conditions named. In cells and extracts the contact can be indirect. Some binding calls cover weakened binding; strength is not graded here.

Amino acid sequences for entries named in this document (tags omitted). A change or cut given only in a name is not applied to a line headed by its entry. Chains listed by the source or under a name are the forms on record and can include a tag or linker.
HA-tagged PP2A C subunit double mutant H59Q/301Stop (P67775, form named): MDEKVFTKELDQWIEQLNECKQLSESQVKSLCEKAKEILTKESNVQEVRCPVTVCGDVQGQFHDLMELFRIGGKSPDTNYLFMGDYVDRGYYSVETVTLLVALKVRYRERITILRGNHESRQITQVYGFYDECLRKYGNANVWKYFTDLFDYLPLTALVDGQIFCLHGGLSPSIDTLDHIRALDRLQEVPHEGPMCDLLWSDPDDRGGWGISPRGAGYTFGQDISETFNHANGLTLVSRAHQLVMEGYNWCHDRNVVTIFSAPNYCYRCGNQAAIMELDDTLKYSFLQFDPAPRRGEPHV

Tests used:
[1] = target: T1, Protein Phosphatase Methylesterase-1 (PME-1), endogenous protein of NIH3T3 cells (mouse) (UniProt Q8BVQ5); experiment: co-immunoprecipitation
T1 sequence (looked up): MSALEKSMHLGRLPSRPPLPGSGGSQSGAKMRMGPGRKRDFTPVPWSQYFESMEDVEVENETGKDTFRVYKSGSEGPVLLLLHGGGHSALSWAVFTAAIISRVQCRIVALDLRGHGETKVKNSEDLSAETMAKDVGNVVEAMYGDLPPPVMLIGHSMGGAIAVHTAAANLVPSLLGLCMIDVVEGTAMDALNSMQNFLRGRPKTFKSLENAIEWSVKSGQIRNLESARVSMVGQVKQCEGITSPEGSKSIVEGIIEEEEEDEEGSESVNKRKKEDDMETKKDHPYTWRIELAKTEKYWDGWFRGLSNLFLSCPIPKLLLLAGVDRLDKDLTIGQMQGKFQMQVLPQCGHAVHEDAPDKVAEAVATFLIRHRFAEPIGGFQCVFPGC

[2] = target: T1, Protein Phosphatase Methylesterase-1 (PME-1), endogenous protein of NIH3T3 cells (mouse); experiment: anti-HA co-immunoprecipitation, immunoblot

binding [1]: binds | binding [2]: binds
Substance: HA-tagged PP2A C subunit double mutant H59Q/301Stop (from UniProt P67775 1-300) (enzyme)
